Laboratory results taken from the supplement of paper PMC8728848.
The list shows a part of the results.

Experiments:
Experiment in all cases: glycan array binding signal (z-score within array); higher = stronger binding
Conditions in all cases: glycan notation: IUPAC condensed, linker removed
[1] = target: Fuc(a1-3)[Gal(b1-4)]Glc6S
Summary of the method: (§1)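 Columns mapping to the same glycan were averaged after glycan names were converted to IUPAC-condensed notation. The data come from 3228 arrays in the Consortium for Functional Glycomics database, limited to those with an available protein sequence. Binding is reported as a within-array Z-score averaged across arrays of one protein sequence and across linkers.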

[2] = target: Fuc(a1-3)[Gal(b1-4)]GlcNAc
Summary of the method: as §1

[3] = target: Fuc(a1-3)[Gal(b1-4)]GlcNAc(b1-2)Man
Summary of the method: as §1

[4] = target: Fuc(a1-3)[Gal(b1-4)]GlcNAc(b1-2)Man(a1-3)[Fuc(a1-3)[Gal(b1-4)]GlcNAc(b1-2)Man(a1-6)]Man(b1-4)GlcNAc(b1-4)GlcNAc
Summary of the method: as §1

[5] = target: Fuc(a1-3)[Gal(b1-4)]GlcNAc(b1-2)Man(a1-3)[Fuc(a1-3)[Gal(b1-4)]GlcNAc(b1-2)Man(a1-6)]Man(b1-4)GlcNAc(b1-4)[Fuc(a1-6)]GlcNAc
Summary of the method: as §1

[6] = target: Fuc(a1-3)[Gal(b1-4)]GlcNAc(b1-3)Gal(b1-3)[Fuc(a1-4)]GlcNAc
Summary of the method: as §1

[7] = target: Fuc(a1-3)[Gal(b1-4)]GlcNAc(b1-3)Gal(b1-4)[Fuc(a1-3)]GlcNAc
Summary of the method: as §1

[8] = target: Fuc(a1-3)[Gal(b1-4)]GlcNAc(b1-3)Gal(b1-4)[Fuc(a1-3)]GlcNAc(b1-3)Gal(b1-4)[Fuc(a1-3)]GlcNAc
Summary of the method: as §1

[9] = target: Fuc(a1-3)[Gal(b1-4)]GlcNAc(b1-3)GalNAc
Summary of the method: as §1

[10] = target: Fuc(a1-3)[Gal(b1-4)]GlcNAc(b1-6)GalNAc
Summary of the method: as §1

[11] = target: Fuc(a1-3)[Gal(b1-4)]GlcNAc(b1-6)[Gal(b1-3)GlcNAc(b1-3)]Gal(b1-4)Glc
Summary of the method: as §1

[12] = target: Fuc(a1-3)[Gal(b1-4)]GlcNAc6S
Summary of the method: as §1

[13] = target: Fuc(a1-3)[Gal3S(b1-4)]Glc
Summary of the method: as §1

[14] = target: Fuc(a1-3)[Gal3S(b1-4)]GlcNAc
Summary of the method: as §1

[15] = target: Fuc(a1-3)[Gal3S(b1-4)]GlcNAc6S
Summary of the method: as §1

[16] = target: Fuc(a1-3)[GalNAc(b1-4)]GlcNAc
Summary of the method: as §1

[17] = target: Fuc(a1-3)[GalNAc(b1-4)]GlcNAc6S
Summary of the method: as §1

[18] = target: Fuc(a1-4)GlcNAc
Summary of the method: as §1

[19] = target: Fuc(b1-3)GlcNAc
Summary of the method: as §1

[20] = target: Gal(a1-2)Gal
Summary of the method: as §1

[21] = target: Gal(a1-3)Gal
Summary of the method: as §1

[22] = target: Gal(a1-3)Gal(b1-3)GlcNAc
Summary of the method: as §1

[23] = target: Gal(a1-3)Gal(b1-3)GlcNAc(b1-2)Man
Summary of the method: as §1

[24] = target: Gal(a1-3)Gal(b1-3)GlcNAc(b1-2)Man(a1-3)[Gal(a1-3)Gal(b1-3)GlcNAc(b1-2)Man(a1-6)]Man(b1-4)GlcNAc(b1-4)GlcNAc
Summary of the method: as §1

[25] = target: Gal(a1-3)Gal(b1-3)GlcNAc(b1-3)GalNAc
Summary of the method: as §1

[26] = target: Gal(a1-3)Gal(b1-3)GlcNAc(b1-6)GalNAc
Summary of the method: as §1

[27] = target: Gal(a1-3)Gal(b1-3)[Fuc(a1-4)]GlcNAc(b1-2)Man(a1-3)[Gal(a1-3)Gal(b1-3)[Fuc(a1-4)]GlcNAc(b1-2)Man(a1-6)]Man(b1-4)GlcNAc(b1-4)GlcNAc
Summary of the method: as §1

[28] = target: Gal(a1-3)Gal(b1-4)Glc
Summary of the method: as §1

[29] = target: Gal(a1-3)Gal(b1-4)GlcNAc
Summary of the method: as §1

[30] = target: Gal(a1-3)Gal(b1-4)GlcNAc(b1-2)Man
Summary of the method: as §1

[31] = target: Gal(a1-3)Gal(b1-4)GlcNAc(b1-2)Man(a1-3)[Gal(a1-3)Gal(b1-4)GlcNAc(b1-2)Man(a1-6)]Man(b1-4)GlcNAc(b1-4)GlcNAc
Summary of the method: as §1

[32] = target: Gal(a1-3)Gal(b1-4)GlcNAc(b1-3)GalNAc
Summary of the method: as §1

[33] = target: Gal(a1-3)Gal(b1-4)GlcNAc(b1-6)GalNAc
Summary of the method: as §1

[34] = target: Gal(a1-3)Gal(b1-4)[Fuc(a1-3)]GlcNAc
Summary of the method: as §1

[35] = target: Gal(a1-3)Gal(b1-4)[Fuc(a1-3)]GlcNAc(b1-2)Man(a1-3)[Gal(a1-3)Gal(b1-4)[Fuc(a1-3)]GlcNAc(b1-2)Man(a1-6)]Man(b1-4)GlcNAc(b1-4)GlcNAc
Summary of the method: as §1

[36] = target: Gal(a1-3)GalNAc
Summary of the method: as §1

[37] = target: Gal(a1-3)[Gal(a1-4)]Gal(b1-4)GlcNAc
Summary of the method: as §1

[38] = target: Gal(a1-4)Gal(b1-3)GlcNAc(b1-2)Man(a1-3)[Gal(a1-4)Gal(b1-3)GlcNAc(b1-2)Man(a1-6)]Man(b1-4)GlcNAc(b1-4)GlcNAc
Summary of the method: as §1

[39] = target: Gal(a1-4)Gal(b1-4)Glc
Summary of the method: as §1

[40] = target: Gal(a1-4)Gal(b1-4)GlcNAc
Summary of the method: as §1

[41] = target: Gal(a1-4)Gal(b1-4)GlcNAc(b1-2)Man(a1-3)[Gal(a1-4)Gal(b1-4)GlcNAc(b1-2)Man(a1-6)]Man(b1-4)GlcNAc(b1-4)GlcNAc
Summary of the method: as §1

[42] = target: Gal(a1-4)Gal(b1-4)GlcNAc(b1-3)Gal(b1-4)Glc
Summary of the method: as §1

[43] = target: Gal(a1-4)GlcNAc
Summary of the method: as §1

[44] = target: Gal(a1-6)Glc
Summary of the method: as §1

[45] = target: Gal(b1-2)Gal
Summary of the method: as §1

B1: HFR-3 (Triticum aestivum) (protein)
chain: MKGLLLCALALAFAAVTTHAQLQSCPTRCGKQADGMECPNNLCCSKDGYCGLGVDYCSAGAGCQSGACYDNKICGAQANGTLCRNNHCCSSGGRCGYGREYCSNGCQGGPCWADLKCGHLDNGKLCPNNLCCSQYGYCGLGPEFCGTGCQNGACSTDKPCGNKANGAPCTNNYCCSQYGSCGLGKDYCGTGCQNGACN
Q: For B1, which “glycan array binding signal (z-score)” value [1] is on record?
A: -1.23

Q: What about the “glycan array binding signal (z-score)” value [2] of the same binder?
A: 0.146

Q: And the “glycan array binding signal (z-score)” value [3]?
A: -0.502

Q: What about the “glycan array binding signal (z-score)” value [4] of the same binder?
A: -0.674

Q: And the “glycan array binding signal (z-score)” value [5]?
A: -0.211

Q: What about the “glycan array binding signal (z-score)” value [6] of the same binder?
A: -0.167

Q: And the “glycan array binding signal (z-score)” value [7]?
A: 0.97

Q: And the “glycan array binding signal (z-score)” value [8]?
A: 1.26

Q: What about the “glycan array binding signal (z-score)” value [9] of the same binder?
A: -1.2

Q: And the “glycan array binding signal (z-score)” value [10]?
A: -1.31

Q: And the “glycan array binding signal (z-score)” value [11]?
A: 0.487

Q: What about the “glycan array binding signal (z-score)” value [12] of the same binder?
A: -1.19

Q: What about the “glycan array binding signal (z-score)” value [13] of the same binder?
A: 2.04

Q: What about the “glycan array binding signal (z-score)” value [14] of the same binder?
A: 0.782

Q: And the “glycan array binding signal (z-score)” value [15]?
A: 1.13

Q: And the “glycan array binding signal (z-score)” value [16]?
A: 0.68

Q: And the “glycan array binding signal (z-score)” value [17]?
A: 1.08

Q: And the “glycan array binding signal (z-score)” value [18]?
A: 0.23

Q: What about the “glycan array binding signal (z-score)” value [19] of the same binder?
A: 0.113

Q: What about the “glycan array binding signal (z-score)” value [20] of the same binder?
A: 0.046

Q: What about the “glycan array binding signal (z-score)” value [21] of the same binder?
A: 0.103

Q: And the “glycan array binding signal (z-score)” value [22]?
A: 0.169

Q: And the “glycan array binding signal (z-score)” value [23]?
A: 0.493

Q: And the “glycan array binding signal (z-score)” value [24]?
A: 0.506

Q: What about the “glycan array binding signal (z-score)” value [25] of the same binder?
A: -1.03

Q: And the “glycan array binding signal (z-score)” value [26]?
A: -0.577

Q: And the “glycan array binding signal (z-score)” value [27]?
A: -1.67

Q: And the “glycan array binding signal (z-score)” value [28]?
A: 0.128

Q: What about the “glycan array binding signal (z-score)” value [29] of the same binder?
A: 0.079

Q: What about the “glycan array binding signal (z-score)” value [30] of the same binder?
A: 0.46

Q: And the “glycan array binding signal (z-score)” value [31]?
A: 0.706

Q: And the “glycan array binding signal (z-score)” value [32]?
A: -0.42

Q: And the “glycan array binding signal (z-score)” value [33]?
A: 0.589

Q: What about the “glycan array binding signal (z-score)” value [34] of the same binder?
A: -0.409

Q: What about the “glycan array binding signal (z-score)” value [35] of the same binder?
A: -0.792

Q: What about the “glycan array binding signal (z-score)” value [36] of the same binder?
A: 2.1

Q: And the “glycan array binding signal (z-score)” value [37]?
A: 1.2

Q: What about the “glycan array binding signal (z-score)” value [38] of the same binder?
A: 0.67

Q: And the “glycan array binding signal (z-score)” value [39]?
A: 2.12

Q: What about the “glycan array binding signal (z-score)” value [40] of the same binder?
A: 0.8

Q: What about the “glycan array binding signal (z-score)” value [41] of the same binder?
A: -0.424

Q: And the “glycan array binding signal (z-score)” value [42]?
A: 0.114

Q: And the “glycan array binding signal (z-score)” value [43]?
A: 0.019

Q: And the “glycan array binding signal (z-score)” value [44]?
A: -0.354

Q: What about the “glycan array binding signal (z-score)” value [45] of the same binder?
A: -0.892
